Assay results taken from WO2006132352A1.
Residue numbers refer to the chain shown, from its start. Results are given in words; binding and its absence hold for the method and conditions named. Some entries that bind do so weakly or less than the wild type. One block for each binder: values may come before it.

Molecular target: MG10 (Gln213 to Ala231 of the human Mpl amino acid sequence) and GST fusion protein (human) (UniProt P40238)
Assay: affinity column of immobilised MG10-GST, elution with 100 mM Glycine-HCl pH 3.5

binding: binds
B1: hVB22B u2-wz4(v1) sc(Fv)2 (scFv)
scFv: QVQLVQSGPEVKKPGASVKVSCKASGYTFTNSWMNWVRERPGKGLEWIGRIYPGDGETIYNGKFRVRVTITADESTSTAYMQLSSLRSEDTAVYYCARGYDDYSFAYWGQGTTVTVSSGGGGSGGGGSGGGGSDIVMTQSPLSLPVTPGEPASISCRSSKSLLHSNGNTYLYWFLEKPGQSPQLLIYRMSNLASGVPDRFSGSGSGTDFTLKISRVEAEDVGVYYCMQHIEYPFTFGQGTKLEIKGGGGSGGGGSGGGGSQVQLVQSGPEVKKPGASVKVSCKASGYTFTNSWMNWVRKRPGKGLEWIGRIYPGDGETIYNGKFRVRVTITADESTSTAYMQLSSLRSEDTAVYYCARGYDDYSFAYWGQGTTVTVSSGGGGSGGGGSGGGGSDIVMTQSPLSLPVTPGEPASISCRSSKSLLHSNGNTYLYWFLKKPGQSPQLLIYRMSNLASGVPDRFSGSGSGTDFTLKISRVEAEDVGVYYCMQHIEYPFTFGQGTKLEIK

binding: binds
B2: hVB22B u2-wz4(v3) sc(Fv)2 (scFv)
scFv: B1 scFv with E176K, K436E
